Among the data in PMC11217414 are binding values, retold here.

By UniProt entry, the sequences of proteins in these tests, tags left out.
UniProt F5HCV3: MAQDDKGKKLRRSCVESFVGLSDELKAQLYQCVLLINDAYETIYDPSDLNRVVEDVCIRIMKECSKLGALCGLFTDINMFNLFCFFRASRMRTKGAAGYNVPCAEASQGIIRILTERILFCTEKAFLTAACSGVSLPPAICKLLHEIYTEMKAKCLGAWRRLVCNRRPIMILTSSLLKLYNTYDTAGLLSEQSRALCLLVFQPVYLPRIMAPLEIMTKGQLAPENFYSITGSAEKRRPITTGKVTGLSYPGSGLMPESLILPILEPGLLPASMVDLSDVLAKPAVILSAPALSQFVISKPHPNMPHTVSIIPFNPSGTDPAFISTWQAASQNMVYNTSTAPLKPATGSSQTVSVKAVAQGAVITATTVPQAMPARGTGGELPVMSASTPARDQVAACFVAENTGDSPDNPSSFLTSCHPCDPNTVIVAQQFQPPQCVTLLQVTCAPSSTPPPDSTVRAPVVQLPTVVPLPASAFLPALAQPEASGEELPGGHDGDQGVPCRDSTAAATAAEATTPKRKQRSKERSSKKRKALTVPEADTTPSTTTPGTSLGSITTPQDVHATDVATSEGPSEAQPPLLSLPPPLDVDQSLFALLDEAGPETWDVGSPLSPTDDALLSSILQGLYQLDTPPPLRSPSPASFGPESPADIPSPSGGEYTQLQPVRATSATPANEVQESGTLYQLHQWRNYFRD
UniProt Q96BN8: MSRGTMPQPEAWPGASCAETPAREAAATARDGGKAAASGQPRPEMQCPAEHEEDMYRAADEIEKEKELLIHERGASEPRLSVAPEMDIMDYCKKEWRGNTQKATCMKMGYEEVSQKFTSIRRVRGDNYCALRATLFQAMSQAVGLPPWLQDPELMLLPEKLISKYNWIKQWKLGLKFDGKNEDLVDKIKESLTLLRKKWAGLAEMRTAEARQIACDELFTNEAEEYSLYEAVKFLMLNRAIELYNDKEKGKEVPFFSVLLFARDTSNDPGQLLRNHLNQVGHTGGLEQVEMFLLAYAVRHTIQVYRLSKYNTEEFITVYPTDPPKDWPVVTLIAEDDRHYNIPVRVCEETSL

This experiment concerns the target KSHV RTA, endogenous in lytically reactivated iSLK/rKSHV.219 cells (KSHV (human herpesvirus 8)) (UniProt F5HCV3). In words: co-IP.

No constants are given. Whether binding was seen depends on the method and setting. In cells and extracts the contact can be indirect. Some entries that bind do so weakly or less than the wild type.

For “OTULIN, endogenous in iSLK/rKSHV.219 cells (from UniProt Q96BN8 1-352) (enzyme)”, the binding entry is “binds”.
